Results: publication PMC3460623
Positions count from the first letter of the chain named. Numbers in names are those of the source. Results are given in words; binding and its absence hold for the method and conditions named. Binding seen in cells or lysates may run through a third protein. Some entries that bind do so weakly or less than the wild type. For part of these data: Tags and fused reporters may be left off the sequences shown.

T1: Phospholipase C γ1 (PLCγ1), endogenous (human (endogenous in HEK293 and HEK293T)) (UniProt P19174)
T1 sequence: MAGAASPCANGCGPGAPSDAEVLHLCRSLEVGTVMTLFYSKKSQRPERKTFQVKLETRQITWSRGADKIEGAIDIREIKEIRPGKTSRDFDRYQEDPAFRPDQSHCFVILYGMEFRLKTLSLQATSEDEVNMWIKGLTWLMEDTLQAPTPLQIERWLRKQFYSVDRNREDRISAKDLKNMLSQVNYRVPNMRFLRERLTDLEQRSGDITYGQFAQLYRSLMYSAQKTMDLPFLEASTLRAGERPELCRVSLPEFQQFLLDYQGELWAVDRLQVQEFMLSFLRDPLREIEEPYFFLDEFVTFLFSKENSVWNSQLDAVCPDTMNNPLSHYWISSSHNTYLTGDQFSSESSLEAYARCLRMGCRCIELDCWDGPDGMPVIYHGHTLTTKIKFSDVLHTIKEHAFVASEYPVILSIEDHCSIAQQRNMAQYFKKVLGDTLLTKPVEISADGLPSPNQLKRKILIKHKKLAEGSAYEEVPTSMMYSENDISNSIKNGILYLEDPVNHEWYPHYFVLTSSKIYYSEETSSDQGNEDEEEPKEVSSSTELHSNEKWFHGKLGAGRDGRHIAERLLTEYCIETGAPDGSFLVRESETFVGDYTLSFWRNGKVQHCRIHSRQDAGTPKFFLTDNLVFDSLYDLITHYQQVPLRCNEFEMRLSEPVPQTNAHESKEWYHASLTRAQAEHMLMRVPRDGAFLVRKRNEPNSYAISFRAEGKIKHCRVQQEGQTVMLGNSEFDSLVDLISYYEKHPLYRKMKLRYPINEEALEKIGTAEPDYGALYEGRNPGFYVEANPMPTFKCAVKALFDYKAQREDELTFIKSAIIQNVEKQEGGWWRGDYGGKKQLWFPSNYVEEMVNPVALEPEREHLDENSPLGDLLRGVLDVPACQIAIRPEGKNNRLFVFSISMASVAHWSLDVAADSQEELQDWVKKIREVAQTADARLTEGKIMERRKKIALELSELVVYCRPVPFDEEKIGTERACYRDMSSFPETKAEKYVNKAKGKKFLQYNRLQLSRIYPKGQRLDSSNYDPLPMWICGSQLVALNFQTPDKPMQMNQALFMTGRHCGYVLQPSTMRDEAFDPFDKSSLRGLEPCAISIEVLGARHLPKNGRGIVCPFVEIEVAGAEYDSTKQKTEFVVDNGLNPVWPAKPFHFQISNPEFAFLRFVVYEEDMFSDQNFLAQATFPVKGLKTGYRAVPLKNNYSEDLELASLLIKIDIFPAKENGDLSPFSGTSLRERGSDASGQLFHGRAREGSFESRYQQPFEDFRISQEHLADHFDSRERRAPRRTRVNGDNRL

B1: KSHV K15 protein, P allele, wild type (pSF91K15) (protein, UniProt Q9QR69 27-489)
chain: VTTNSIDTMASLLVMCILFVSAINKYTQAISSNNPKWPSSWHLGIIACIVLKLWNLSTTNSVTYACLITTAILSLVTAFLTLIKHCTACKLQLEHGILFTSTFAVLMTNMLVHMSNTWQSSWIFFPISFTLSLPFLYAFATVKTGNIKLVSSVSFICAGLVMGYPVSCCKTHTCTATAAGLSLSSIYLGFTGIISTLHKSWAPPKRGILTFLLLQGGVLTTQTLTTELLAITSTTGNIKGHEILLLVCLIFLWCLYVWQSFNKASLVTGMLHLIAAWSHTGGCVQLVMLLPSGLTRGILTMIICISTLFSTLQGLLVFYLYKEKKVVAVNSYRQRRRRIYTRDQNLHHNDNHLGNNVISPPPLPPFFRQPVRLPSHVTDRGRGSQLLNEVELQEVNRDPPNVFGYASILVSGAEESREPSPQPDQSGMSILRVDGGSAFRIDTAQAATQPTDDLYEEVLFPRN
B2: FLAG-tagged K15P (pFJ-K15P) (protein, UniProt Q9QR69 27-489)
chain: B1 chain
B3: KSHV K15-P YF/ΔSH3 double mutant (pSF91K15/YF/ΔSH3) (protein, UniProt Q9QR69 27-489)
chain: B1 chain with P361A, P362A, P364A, Y455F

Key:
[1] = molecular target: T1, Phospholipase C γ1 (PLCγ1), endogenous (human (endogenous in HEK293 and HEK293T)); test: co-IP; HEK293 transiently transfected with pSF91 K15 vectors; HEPES lysis buffer (150 mM NaCl, 1% Triton-X100); endogenous PLCγ1 immunoprecipitated with rabbit anti-PLCγ1 and protein A Sepharose at 4°C; blot with polyclonal anti-K15
[2] = molecular target: T1, Phospholipase C γ1 (PLCγ1), endogenous (human (endogenous in HEK293 and HEK293T)); test: co-IP; HEK293T transiently transfected with pFJ-K15P or pFJ-K15M; endogenous PLCγ1 immunoprecipitated; K15 detected with an antibody to the FLAG tag

| Binder | binding [1] | binding [2] |
| --- | --- | --- |
| B1 | binds |  |
| B2 |  | binds |
| B3 | no binding |  |
